# Laboratory results: PubChem BioAssay AID1159584 (Peter MacCallum Cancer Centre, 2016)
# Aim: 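Genes that CDH1-null MCF10A cells selectively depend on to survive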 (primary screen)
# Cell system: human MCF10A breast epithelial cells, parental and CDH1-null
# Knock-down reagent: siRNA against human genes
# Read-out: 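ATP luminescence (CellTiter-Glo) viability per line relative to mean mock wells over all plates, and the ratio of CDH1-null to parental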
# Scale: CDH1-null / parental viability ratio: higher = CDH1-null cells survive relatively better than parental; CDH1-null viability vs mock: higher = more viable CDH1-null cells
# This is a random part of about 18,000 deposited reagents. Not all columns of the deposit are shown. Not stated in the record: the amount of reagent, the time to read-out.
target gene,CDH1-null / parental viability ratio,CDH1-null viability vs mock (fraction of mock)
PHAF1,1.03,0.99
TP63,1.11,0.98
BDNF,0.92,0.82
APOF,1.14,0.57
TRIP6,0.85,0.84
BDH1,1.22,1.29
HSPA8,1.04,1.04
ODF4,0.82,0.59
PHGDH,1.1,0.92
MSS51,1.34,1.46
USP19,1.03,0.99
MRM2,0.62,0.43
SLC30A8,0.98,0.84
SLC9D1,1.01,0.77
RAVER2,1.16,1.02
CHP2,1.14,0.98
MLNR,0.7,0.61
MAP3K9,0.83,0.64
METTL21C,0.81,0.73
CCNE2,1.15,1.15
SNTA1,1.52,0.7
IL2RG,1.05,0.98
SFMBT1,1.05,0.84
PISD,0.86,0.6
SHE,0.86,0.76
BPNT2,1.15,0.99
TRMT61A,1.13,0.86
SERF1A,0.79,0.38
GDE1,0.87,0.71
RBM26,1.15,0.75
MSTN,0.82,0.7
WDR44,2.19,0.7
CNRIP1,1.09,1
NTS,0.92,0.9
GPR171,0.76,0.82
ZBTB2,1.38,0.9
UQCC2,0.98,0.8
PDIA3,1.62,0.52
ADAM21,1.2,0.83
ZNF530,1.23,0.87
OR11H1,1.27,0.99
RCOR3,0.8,0.48
CNNM3,1.53,1.04
DOCK8-AS1,1.19,1.01
TMEM225,0.87,0.9
MIER1,1.06,0.68
S100A5,1.08,0.64
UNC5D,0.88,0.66
PDE11A,0.82,0.77
ATP1B1,1.1,0.92
REEP5,1.25,1.19
NBPF11,1.17,1.1
UBTD2,0.68,0.42
CTSA,1.43,0.6
KIF24,1,0.55
FBXW11,1.09,0.94
LRCH2,0.91,0.4
RPS10,1.07,0.32
GPAA1,0.89,0.62
RFTN2,1.05,1
MVP,0.91,0.41
SIGLEC9,1.01,0.99
LY6G5B,1.27,0.94
PANK3,0.99,1.11
ZNF280C,0.99,0.94
HSBP1,0.95,0.8
PRAP1,0.77,0.2
RPP25L,0.95,0.38
